According to the supplement of paper PMC12823440, “Inhibitors supercharge kinase turnover through native proteolytic circuits” (Nature, 2025):
Counter-ions that a name gives are not always drawn. The list shows a part of the results. The calls rarely recur for the same compound in another form.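 Kinases, fused to nanoluciferase, were expressed in K562 cells; luminescence was measured every 4 h from 2 to 18 h as percent of control (DMSO = 100%, positive control = 0%). A time point is decreased if signal falls significantly (2 sigma). Hits were called by the authors by a rule that is not shown; the count of time points alone does not decide it.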

The chains behind the UniProt entries cited, without tags or fusion partners. Where a name states a change or a piece, a line headed by the entry shows the natural chain unless it says otherwise.
UniProt Q15208: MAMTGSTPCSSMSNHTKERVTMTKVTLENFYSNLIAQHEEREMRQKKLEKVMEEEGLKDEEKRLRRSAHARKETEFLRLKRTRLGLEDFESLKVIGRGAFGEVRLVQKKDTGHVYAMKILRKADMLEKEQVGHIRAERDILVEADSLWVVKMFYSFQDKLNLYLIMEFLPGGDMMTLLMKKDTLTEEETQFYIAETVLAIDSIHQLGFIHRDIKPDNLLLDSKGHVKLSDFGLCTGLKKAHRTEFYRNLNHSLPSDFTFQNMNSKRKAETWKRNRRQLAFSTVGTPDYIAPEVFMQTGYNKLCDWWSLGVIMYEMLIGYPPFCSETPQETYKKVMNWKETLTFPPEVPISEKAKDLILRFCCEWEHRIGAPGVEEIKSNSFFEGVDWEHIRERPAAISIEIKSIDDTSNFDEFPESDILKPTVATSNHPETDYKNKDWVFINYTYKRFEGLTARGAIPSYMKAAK
UniProt P42680: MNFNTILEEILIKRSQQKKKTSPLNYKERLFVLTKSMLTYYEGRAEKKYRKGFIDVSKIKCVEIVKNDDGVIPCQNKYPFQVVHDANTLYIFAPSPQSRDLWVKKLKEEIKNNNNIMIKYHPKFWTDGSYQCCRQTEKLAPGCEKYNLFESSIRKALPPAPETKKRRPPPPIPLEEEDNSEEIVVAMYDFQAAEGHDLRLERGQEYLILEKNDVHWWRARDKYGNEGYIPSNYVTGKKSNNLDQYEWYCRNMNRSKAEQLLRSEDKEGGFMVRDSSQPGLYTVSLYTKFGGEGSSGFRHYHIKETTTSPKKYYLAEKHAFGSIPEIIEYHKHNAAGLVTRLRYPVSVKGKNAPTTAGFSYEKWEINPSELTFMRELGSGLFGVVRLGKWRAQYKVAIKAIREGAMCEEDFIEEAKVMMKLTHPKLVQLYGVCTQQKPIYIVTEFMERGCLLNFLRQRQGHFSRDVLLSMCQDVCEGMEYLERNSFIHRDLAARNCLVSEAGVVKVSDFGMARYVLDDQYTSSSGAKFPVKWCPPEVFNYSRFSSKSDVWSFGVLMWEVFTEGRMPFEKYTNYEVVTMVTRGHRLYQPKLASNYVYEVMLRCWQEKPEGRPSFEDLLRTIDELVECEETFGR
UniProt P29597: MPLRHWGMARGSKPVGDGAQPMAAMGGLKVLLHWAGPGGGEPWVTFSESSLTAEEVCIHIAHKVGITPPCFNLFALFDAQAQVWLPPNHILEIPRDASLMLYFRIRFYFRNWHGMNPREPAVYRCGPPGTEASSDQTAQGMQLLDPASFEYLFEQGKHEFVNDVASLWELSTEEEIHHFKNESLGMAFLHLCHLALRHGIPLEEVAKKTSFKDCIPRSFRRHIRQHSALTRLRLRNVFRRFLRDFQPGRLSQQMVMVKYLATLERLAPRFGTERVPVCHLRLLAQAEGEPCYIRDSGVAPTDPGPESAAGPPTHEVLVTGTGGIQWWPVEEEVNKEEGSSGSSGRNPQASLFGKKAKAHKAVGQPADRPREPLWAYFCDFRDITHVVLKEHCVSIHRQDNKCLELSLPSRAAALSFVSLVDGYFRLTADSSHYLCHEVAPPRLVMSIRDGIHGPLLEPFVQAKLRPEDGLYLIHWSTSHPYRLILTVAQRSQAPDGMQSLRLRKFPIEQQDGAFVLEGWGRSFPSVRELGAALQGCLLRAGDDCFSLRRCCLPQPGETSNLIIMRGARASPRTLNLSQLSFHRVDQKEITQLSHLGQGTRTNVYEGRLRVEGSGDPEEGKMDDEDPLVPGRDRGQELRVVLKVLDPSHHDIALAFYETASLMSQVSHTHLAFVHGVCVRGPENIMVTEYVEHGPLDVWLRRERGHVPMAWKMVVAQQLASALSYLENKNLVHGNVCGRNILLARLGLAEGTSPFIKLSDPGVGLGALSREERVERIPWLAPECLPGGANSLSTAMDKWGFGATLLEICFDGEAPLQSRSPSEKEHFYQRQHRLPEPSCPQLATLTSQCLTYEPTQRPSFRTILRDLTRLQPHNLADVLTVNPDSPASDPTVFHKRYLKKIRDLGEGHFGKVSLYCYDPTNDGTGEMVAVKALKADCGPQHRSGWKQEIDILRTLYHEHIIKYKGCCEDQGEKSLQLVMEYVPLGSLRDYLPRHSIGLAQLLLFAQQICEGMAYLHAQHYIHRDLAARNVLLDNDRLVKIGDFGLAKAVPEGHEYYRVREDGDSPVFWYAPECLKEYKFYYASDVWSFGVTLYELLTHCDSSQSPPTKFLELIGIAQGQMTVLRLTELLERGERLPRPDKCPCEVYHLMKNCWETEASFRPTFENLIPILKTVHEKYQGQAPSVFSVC
UniProt Q6PHR2: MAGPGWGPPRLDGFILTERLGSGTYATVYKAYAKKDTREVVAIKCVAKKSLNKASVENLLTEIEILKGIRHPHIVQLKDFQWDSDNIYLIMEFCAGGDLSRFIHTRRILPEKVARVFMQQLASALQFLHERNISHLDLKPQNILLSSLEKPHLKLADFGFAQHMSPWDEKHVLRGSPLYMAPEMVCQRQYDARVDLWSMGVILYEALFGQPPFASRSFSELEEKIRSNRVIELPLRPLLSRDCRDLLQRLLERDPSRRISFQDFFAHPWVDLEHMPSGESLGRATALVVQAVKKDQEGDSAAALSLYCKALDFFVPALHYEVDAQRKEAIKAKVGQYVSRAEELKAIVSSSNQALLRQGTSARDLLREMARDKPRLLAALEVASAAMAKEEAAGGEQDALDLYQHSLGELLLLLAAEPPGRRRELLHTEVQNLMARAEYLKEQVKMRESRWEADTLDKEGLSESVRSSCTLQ
UniProt P07947, whole entry, looked up: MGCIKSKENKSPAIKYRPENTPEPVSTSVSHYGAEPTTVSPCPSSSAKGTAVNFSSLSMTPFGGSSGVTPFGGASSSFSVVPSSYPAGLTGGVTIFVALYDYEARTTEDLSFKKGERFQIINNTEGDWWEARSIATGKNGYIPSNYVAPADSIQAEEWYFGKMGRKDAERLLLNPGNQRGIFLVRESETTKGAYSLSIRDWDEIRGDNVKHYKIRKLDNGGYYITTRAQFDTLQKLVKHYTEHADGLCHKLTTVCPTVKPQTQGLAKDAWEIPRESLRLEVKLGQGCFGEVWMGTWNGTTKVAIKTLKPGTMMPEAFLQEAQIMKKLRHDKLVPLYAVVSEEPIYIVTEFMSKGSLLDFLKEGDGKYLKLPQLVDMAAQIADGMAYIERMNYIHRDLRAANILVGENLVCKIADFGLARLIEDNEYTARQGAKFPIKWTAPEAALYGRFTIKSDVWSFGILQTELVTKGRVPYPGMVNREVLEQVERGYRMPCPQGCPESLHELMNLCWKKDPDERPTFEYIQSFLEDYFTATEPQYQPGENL
UniProt P43403: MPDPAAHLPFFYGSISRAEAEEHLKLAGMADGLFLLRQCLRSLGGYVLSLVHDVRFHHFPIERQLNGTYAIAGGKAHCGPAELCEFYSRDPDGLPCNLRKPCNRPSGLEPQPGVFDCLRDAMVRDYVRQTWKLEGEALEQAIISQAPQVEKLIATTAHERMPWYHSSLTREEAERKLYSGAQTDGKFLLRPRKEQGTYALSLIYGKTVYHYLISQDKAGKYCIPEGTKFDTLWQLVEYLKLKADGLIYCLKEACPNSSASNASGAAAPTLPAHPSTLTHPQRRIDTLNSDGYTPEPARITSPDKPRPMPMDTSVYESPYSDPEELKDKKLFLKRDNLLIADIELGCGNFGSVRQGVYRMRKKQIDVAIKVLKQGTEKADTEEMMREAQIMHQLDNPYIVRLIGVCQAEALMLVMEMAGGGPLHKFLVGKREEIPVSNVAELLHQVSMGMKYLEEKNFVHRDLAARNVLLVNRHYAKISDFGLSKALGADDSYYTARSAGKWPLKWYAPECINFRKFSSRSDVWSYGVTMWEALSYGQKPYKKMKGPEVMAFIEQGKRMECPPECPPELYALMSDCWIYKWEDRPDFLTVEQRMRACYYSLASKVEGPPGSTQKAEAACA
UniProt P00519, whole entry: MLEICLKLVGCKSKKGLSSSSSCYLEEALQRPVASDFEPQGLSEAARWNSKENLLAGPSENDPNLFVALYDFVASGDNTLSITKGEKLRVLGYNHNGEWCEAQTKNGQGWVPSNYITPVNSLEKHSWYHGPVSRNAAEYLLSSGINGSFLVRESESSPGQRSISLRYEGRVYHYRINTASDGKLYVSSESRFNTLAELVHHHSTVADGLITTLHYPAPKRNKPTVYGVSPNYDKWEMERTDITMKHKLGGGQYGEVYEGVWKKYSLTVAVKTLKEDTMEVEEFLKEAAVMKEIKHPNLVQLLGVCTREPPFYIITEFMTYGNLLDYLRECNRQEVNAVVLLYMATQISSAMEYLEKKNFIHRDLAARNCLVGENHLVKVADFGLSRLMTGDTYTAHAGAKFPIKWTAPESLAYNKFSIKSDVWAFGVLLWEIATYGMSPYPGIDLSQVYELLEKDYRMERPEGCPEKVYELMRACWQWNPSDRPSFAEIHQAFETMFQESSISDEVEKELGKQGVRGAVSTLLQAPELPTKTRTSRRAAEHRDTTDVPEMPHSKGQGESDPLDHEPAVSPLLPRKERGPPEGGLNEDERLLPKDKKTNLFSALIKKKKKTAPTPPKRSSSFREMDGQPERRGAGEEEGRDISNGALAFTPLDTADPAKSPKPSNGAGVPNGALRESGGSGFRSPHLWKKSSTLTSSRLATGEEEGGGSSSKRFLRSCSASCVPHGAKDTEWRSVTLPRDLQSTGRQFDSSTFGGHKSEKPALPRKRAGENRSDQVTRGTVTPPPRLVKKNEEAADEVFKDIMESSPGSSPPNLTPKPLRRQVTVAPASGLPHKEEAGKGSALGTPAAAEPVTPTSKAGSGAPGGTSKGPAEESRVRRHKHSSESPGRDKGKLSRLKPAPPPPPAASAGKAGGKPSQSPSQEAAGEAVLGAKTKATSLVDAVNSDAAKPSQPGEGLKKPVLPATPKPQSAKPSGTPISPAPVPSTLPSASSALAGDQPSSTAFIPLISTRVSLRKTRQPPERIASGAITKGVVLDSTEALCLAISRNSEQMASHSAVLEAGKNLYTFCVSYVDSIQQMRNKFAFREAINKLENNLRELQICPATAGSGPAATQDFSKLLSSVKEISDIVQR
UniProt P31749: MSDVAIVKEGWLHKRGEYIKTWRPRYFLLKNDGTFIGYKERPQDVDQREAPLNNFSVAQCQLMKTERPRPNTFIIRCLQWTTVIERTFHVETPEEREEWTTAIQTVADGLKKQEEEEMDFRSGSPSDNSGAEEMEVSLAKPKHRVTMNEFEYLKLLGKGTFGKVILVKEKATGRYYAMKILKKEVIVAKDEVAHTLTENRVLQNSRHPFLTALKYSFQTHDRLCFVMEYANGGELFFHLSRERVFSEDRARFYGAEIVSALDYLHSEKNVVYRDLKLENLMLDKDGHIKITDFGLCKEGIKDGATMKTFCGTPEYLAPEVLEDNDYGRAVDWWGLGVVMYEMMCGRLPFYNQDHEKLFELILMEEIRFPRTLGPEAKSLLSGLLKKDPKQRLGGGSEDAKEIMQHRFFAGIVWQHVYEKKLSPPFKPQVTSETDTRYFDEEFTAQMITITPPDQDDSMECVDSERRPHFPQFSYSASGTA

What was measured:
Conditions in all cases: K562; 2-18 h
STK38 = STK38 (UniProt Q15208); test: kinase-Nluc reporter destabilization hit call (1 = scored as downregulated) (binary); higher = compound decreases kinase abundance
SYK = SYK (UniProt P43405); test: as above
TEC = TEC (UniProt P42680); test: as above
TYK2 = TYK2 (UniProt P29597); test: as above
ULK3 = ULK3 (UniProt Q6PHR2); test: as above
YES1 = YES1 (UniProt P07947); test: as above
ZAK = ZAK (UniProt Q9NYL2); test: as above
ZAP70 = ZAP70 (UniProt P43403); test: as above
ABL1 = ABL1 (UniProt P00519); test: number of time points (of 5) at which kinase-Nluc abundance scored as decreased, DMSO-normalised (count); higher = more persistent destabilization
AKT1 = AKT1 (UniProt P31749); test: as above

Structure (SMILES) | kinase-Nluc reporter destabilization hit call (STK38) | kinase-Nluc reporter destabilization hit call (SYK) | kinase-Nluc reporter destabilization hit call (TEC) | kinase-Nluc reporter destabilization hit call (TYK2) | kinase-Nluc reporter destabilization hit call (ULK3) | kinase-Nluc reporter destabilization hit call (YES1) | kinase-Nluc reporter destabilization hit call (ZAK) | kinase-Nluc reporter destabilization hit call (ZAP70) | number of time points (ABL1) | number of time points (AKT1)
Cn1cc(-c2ccc3nnc(C(F)(F)c4ccc5ncccc5c4)n3n2)cn1 (10 µM) | inactive: 0 | inactive: 0 | inactive: 0 | inactive: 0 | inactive: 0 | inactive: 0 | inactive: 0 | inactive: 0 | 0 | 0
C=CC(=O)Nc1cccc(-n2c(=O)cc(C)c3cnc(Nc4ccc(OCCN(C)C)cc4OC)nc32)c1 (10 µM) | inactive: 0 | inactive: 0 | inactive: 0 | inactive: 0 | inactive: 0 | inactive: 0 | inactive: 0 | inactive: 0 | 0 | 0
CCn1nc(C2CCN(C(=O)CCO)CC2)nc1-c1cnc(N)c(-c2nnc(C(C)(C)C)o2)n1 (10 µM) | inactive: 0 | inactive: 0 | inactive: 0 | inactive: 0 | inactive: 0 | inactive: 0 | inactive: 0 | inactive: 0 | 0 | 0
CC(=O)NCCc1c[nH]c2ccc(O)cc12 [N-Acetyl-5-hydroxytryptamine] (10 µM) | inactive: 0 | inactive: 0 | inactive: 0 | inactive: 0 | inactive: 0 | inactive: 0 | inactive: 0 | inactive: 0 | 0 | 0
O=c1nc(N2CCOCC2)oc2c(-c3cccc4c3sc3ccccc34)cccc12 (10 µM) | inactive: 0 | inactive: 0 | inactive: 0 | inactive: 0 | inactive: 0 | inactive: 0 | inactive: 0 | inactive: 0 | 0 | 0
Cc1ccc(-c2ccc3c(ccc4sc5c(c43)NC[C@@H](C)NC5=O)n2)cn1 (10 µM) | inactive: 0 | inactive: 0 | inactive: 0 | inactive: 0 | inactive: 0 | inactive: 0 | inactive: 0 | inactive: 0 | 0 | 0
C[C@@H]1COCCN1c1cc(C2([S@](C)(=N)=O)CC2)nc(-c2cc[nH]c3nccc2-3)n1 [Ceralasertib] (2.5 µM) | inactive: 0 | inactive: 0 | inactive: 0 | inactive: 0 | inactive: 0 | inactive: 0 | inactive: 0 | inactive: 0 | 0 | 0
NCCCCCCNS(=O)(=O)c1cccc2c(Cl)cccc12 [W-7 (hydrochloride)] (10 µM) | inactive: 0 | inactive: 0 | inactive: 0 | inactive: 0 | inactive: 0 | inactive: 0 | inactive: 0 | inactive: 0 | 0 | 0
CC(C)c1ccc(CC(=O)N2CCN(c3ccc(C#N)nn3)CC2)cc1 (10 µM) | inactive: 0 | inactive: 0 | inactive: 0 | inactive: 0 | inactive: 0 | inactive: 0 | inactive: 0 | inactive: 0 | 0 | 0
O=C(CO)N1CCC(c2n[nH]c(-c3ccc(Cl)cc3)c2-c2ccncn2)CC1 (10 µM) | inactive: 0 | inactive: 0 | inactive: 0 | inactive: 0 | inactive: 0 | inactive: 0 | inactive: 0 | inactive: 0 | 0 | 0
CC[C@H](C)[C@H](NC(=O)[C@H](CCC(=O)O)NC(=O)[C@H](CCCN=C(N)N)NC(=O)[C@H](CCCN=C(N)N)NC(=O)[C@@H](N)CCCCN)C(=O)N[C@@H](CC(C)C)C(=O)N[C@@H](CO)C(=O)N[C@@H](CCCN=C(N)N)C(=O)N[C@@H](CCCN=C(N)N)C(=O)N1CCC[C@H]1C(=O)N[C@@H](CO)C(=O)N[C@@H](Cc1ccc(O)cc1)C(=O)N[C@@H](CCCN=C(N)N)C(=O)O [CREBtide] (10 µM) | inactive: 0 | inactive: 0 | inactive: 0 | inactive: 0 | inactive: 0 | inactive: 0 | inactive: 0 | inactive: 0 | 0 | 0
COc1cc(C(C)=O)cc(OC)c1O [Acetosyringone] (10 µM) | inactive: 0 | inactive: 0 | inactive: 0 | inactive: 0 | inactive: 0 | inactive: 0 | inactive: 0 | inactive: 0 | 0 | 0
CNC(=O)c1ccc(-c2cnc3cnc(-c4ccccc4)cn23)cc1 (10 µM) | inactive: 0 | inactive: 0 | inactive: 0 | inactive: 0 | inactive: 0 | inactive: 0 | inactive: 0 | inactive: 0 | 0 | 0
c1cc(-c2cnn3cc(-c4ccc(N5CCNCC5)cc4)cnc23)c2cccnc2c1 (2.5 µM) | inactive: 0 | inactive: 0 | inactive: 0 | inactive: 0 | inactive: 0 | inactive: 0 | inactive: 0 | inactive: 0 | 0 | 0
C[C@@H]1O[C@@H](OC[C@H]2O[C@@H](Oc3cc(O)c4c(c3)O[C@H](c3ccc(O)cc3)CC4=O)[C@H](O)[C@@H](O)[C@@H]2O)[C@H](O)[C@H](O)[C@H]1O [Narirutin] (10 µM) | inactive: 0 | inactive: 0 | inactive: 0 | inactive: 0 | inactive: 0 | inactive: 0 | inactive: 0 | inactive: 0 | 0 | 0
COc1ccc(CNc2nc(N(CCO)CCO)nc3c2ncn3C(C)C)cc1 (2.5 µM) | inactive: 0 | inactive: 0 | inactive: 0 | inactive: 0 | inactive: 0 | inactive: 0 | inactive: 0 | inactive: 0 | 0 | 0
C=CC(=O)N1CCC[C@@H](n2nc(C(=O)Nc3ccc(CC(=O)N(C)C)c(C)c3C)c3c(N)ncnc32)C1 (10 µM) | inactive: 0 | inactive: 0 | inactive: 0 | inactive: 0 | inactive: 0 | inactive: 0 | inactive: 0 | inactive: 0 | 0 | 0
COc1ncc(Nc2ncc([C@@H](C)N3CCN(S(C)(=O)=O)CC3)cc2-c2nc(C)nc(N)n2)cc1F (10 µM) | inactive: 0 | inactive: 0 | inactive: 0 | inactive: 0 | inactive: 0 | inactive: 0 | inactive: 0 | inactive: 0 | 0 | 0
Cc1nc(NC(=O)NCCc2nnn(CCF)n2)sc1-c1ccc(S(C)(=O)=O)c(F)c1 (10 µM) | inactive: 0 | inactive: 0 | inactive: 0 | inactive: 0 | inactive: 0 | inactive: 0 | inactive: 0 | inactive: 0 | 0 | 0
Nc1ncc(-c2ccc(C(=O)N3CCNCC3)cc2)nc1-c1ccc(C(F)(F)F)cc1 (10 µM) | inactive: 0 | inactive: 0 | inactive: 0 | inactive: 0 | inactive: 0 | inactive: 0 | inactive: 0 | inactive: 0 | 0 | 0
C=CC(=O)N1CCC(Oc2cc3c(Nc4ccc(Cl)c(Cl)c4F)ncnc3cc2OC)CC1 [Poziotinib] (2.5 µM) | inactive: 0 | inactive: 0 | inactive: 0 | inactive: 0 | inactive: 0 | inactive: 0 | inactive: 0 | inactive: 0 | 0 | 0
O[C@H]1CC[C@H](Nc2ncc3nc(Nc4c(F)cc(F)cc4F)n([C@H]4CCOC4)c3n2)CC1 [Tanzisertib] (10 µM) | inactive: 0 | inactive: 0 | inactive: 0 | inactive: 0 | inactive: 0 | inactive: 0 | inactive: 0 | inactive: 0 | 0 | 0
N#Cc1ccc(-c2c(-c3ncn[nH]3)sc(N3CCOCC3)c2C#N)c(F)c1 (10 µM) | inactive: 0 | inactive: 0 | inactive: 0 | inactive: 0 | inactive: 0 | inactive: 0 | inactive: 0 | inactive: 0 | 0 | 0
CCOc1ccccc1C=C1C(=O)Nc2ccccc21 (10 µM) | inactive: 0 | inactive: 0 | inactive: 0 | inactive: 0 | inactive: 0 | inactive: 0 | inactive: 0 | inactive: 0 | 2 | 0
CCN1C(=O)CNc2ncc(-c3ccc(-c4nc[nH]n4)nc3C)nc21 [CC-115 (hydrochloride)] (2.5 µM) | inactive: 0 | inactive: 0 | inactive: 0 | inactive: 0 | inactive: 0 | inactive: 0 | inactive: 0 | inactive: 0 | 5 | 0
CC(C)c1cc(/C=C(\C#N)C(N)=O)cc(C(C)C)c1O (10 µM) | inactive: 0 | inactive: 0 | inactive: 0 | inactive: 0 | inactive: 0 | inactive: 0 | inactive: 0 | inactive: 0 | 0 | 0
CC(C)(C)c1cc(C(c2cc3c(cc2O)OCO3)N2CCOCC2)cc(C(C)(C)C)c1O (stereo not given) (2.5 µM) | inactive: 0 | inactive: 0 | inactive: 0 | inactive: 0 | inactive: 0 | inactive: 0 | inactive: 0 | inactive: 0 | 0 | 0
O=C(O)CCc1ccc(NCc2cccc(Oc3ccccc3)c2)cc1 (10 µM) | inactive: 0 | inactive: 0 | inactive: 0 | inactive: 0 | inactive: 0 | inactive: 0 | inactive: 0 | inactive: 0 | 0 | 0
C=C(F)C(=O)N1CCN(c2nc(OC[C@@H]3CCCN3C)nc3c2CCN(c2cccc4cccc(Cl)c24)C3)C[C@@H]1CC#N (2.5 µM) | inactive: 0 | inactive: 0 | inactive: 0 | inactive: 0 | inactive: 0 | inactive: 0 | inactive: 0 | inactive: 0 | 0 | 0
Cc1cc(Nc2nc(N[C@@H](C)c3ncc(F)cn3)ncc2Cl)[nH]n1 (10 µM) | inactive: 0 | inactive: 0 | inactive: 0 | inactive: 0 | inactive: 0 | inactive: 0 | inactive: 0 | inactive: 0 | 0 | 0

Some of the entries so far, in markdown:

| Structure (SMILES) | kinase-Nluc reporter destabilization hit call (STK38) | kinase-Nluc reporter destabilization hit call (SYK) | kinase-Nluc reporter destabilization hit call (TEC) | kinase-Nluc reporter destabilization hit call (TYK2) | kinase-Nluc reporter destabilization hit call (ULK3) | kinase-Nluc reporter destabilization hit call (YES1) | kinase-Nluc reporter destabilization hit call (ZAK) | kinase-Nluc reporter destabilization hit call (ZAP70) | number of time points (ABL1) | number of time points (AKT1) |
| --- | --- | --- | --- | --- | --- | --- | --- | --- | --- | --- |
| C=CC(=O)Nc1cccc(-n2c(=O)cc(C)c3cnc(Nc4ccc(OCCN(C)C)cc4OC)nc32)c1 (10 µM) | inactive: 0 | inactive: 0 | inactive: 0 | inactive: 0 | inactive: 0 | inactive: 0 | inactive: 0 | inactive: 0 | 0 | 0 |
| NCCCCCCNS(=O)(=O)c1cccc2c(Cl)cccc12 [W-7 (hydrochloride)] (10 µM) | inactive: 0 | inactive: 0 | inactive: 0 | inactive: 0 | inactive: 0 | inactive: 0 | inactive: 0 | inactive: 0 | 0 | 0 |
| C[C@@H]1O[C@@H](OC[C@H]2O[C@@H](Oc3cc(O)c4c(c3)O[C@H](c3ccc(O)cc3)CC4=O)[C@H](O)[C@@H](O)[C@@H]2O)[C@H](O)[C@H](O)[C@H]1O [Narirutin] (10 µM) | inactive: 0 | inactive: 0 | inactive: 0 | inactive: 0 | inactive: 0 | inactive: 0 | inactive: 0 | inactive: 0 | 0 | 0 |
| O[C@H]1CC[C@H](Nc2ncc3nc(Nc4c(F)cc(F)cc4F)n([C@H]4CCOC4)c3n2)CC1 [Tanzisertib] (10 µM) | inactive: 0 | inactive: 0 | inactive: 0 | inactive: 0 | inactive: 0 | inactive: 0 | inactive: 0 | inactive: 0 | 0 | 0 |
| N#Cc1ccc(-c2c(-c3ncn[nH]3)sc(N3CCOCC3)c2C#N)c(F)c1 (10 µM) | inactive: 0 | inactive: 0 | inactive: 0 | inactive: 0 | inactive: 0 | inactive: 0 | inactive: 0 | inactive: 0 | 0 | 0 |
| CCN1C(=O)CNc2ncc(-c3ccc(-c4nc[nH]n4)nc3C)nc21 [CC-115 (hydrochloride)] (2.5 µM) | inactive: 0 | inactive: 0 | inactive: 0 | inactive: 0 | inactive: 0 | inactive: 0 | inactive: 0 | inactive: 0 | 5 | 0 |
| C=C(F)C(=O)N1CCN(c2nc(OC[C@@H]3CCCN3C)nc3c2CCN(c2cccc4cccc(Cl)c24)C3)C[C@@H]1CC#N (2.5 µM) | inactive: 0 | inactive: 0 | inactive: 0 | inactive: 0 | inactive: 0 | inactive: 0 | inactive: 0 | inactive: 0 | 0 | 0 |
